Data reported in the supplement of paper PMC10849652.
This is one part of the list.

By UniProt entry, the sequences of proteins in these tests, tags left out. Where a name states a change or a piece, a line headed by the entry shows the natural chain unless it says otherwise.
UniProt Q3KRA6: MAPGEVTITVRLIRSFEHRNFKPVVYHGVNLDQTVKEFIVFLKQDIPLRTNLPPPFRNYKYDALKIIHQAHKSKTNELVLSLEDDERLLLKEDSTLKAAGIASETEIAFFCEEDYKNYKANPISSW
UniProt P0C0L4: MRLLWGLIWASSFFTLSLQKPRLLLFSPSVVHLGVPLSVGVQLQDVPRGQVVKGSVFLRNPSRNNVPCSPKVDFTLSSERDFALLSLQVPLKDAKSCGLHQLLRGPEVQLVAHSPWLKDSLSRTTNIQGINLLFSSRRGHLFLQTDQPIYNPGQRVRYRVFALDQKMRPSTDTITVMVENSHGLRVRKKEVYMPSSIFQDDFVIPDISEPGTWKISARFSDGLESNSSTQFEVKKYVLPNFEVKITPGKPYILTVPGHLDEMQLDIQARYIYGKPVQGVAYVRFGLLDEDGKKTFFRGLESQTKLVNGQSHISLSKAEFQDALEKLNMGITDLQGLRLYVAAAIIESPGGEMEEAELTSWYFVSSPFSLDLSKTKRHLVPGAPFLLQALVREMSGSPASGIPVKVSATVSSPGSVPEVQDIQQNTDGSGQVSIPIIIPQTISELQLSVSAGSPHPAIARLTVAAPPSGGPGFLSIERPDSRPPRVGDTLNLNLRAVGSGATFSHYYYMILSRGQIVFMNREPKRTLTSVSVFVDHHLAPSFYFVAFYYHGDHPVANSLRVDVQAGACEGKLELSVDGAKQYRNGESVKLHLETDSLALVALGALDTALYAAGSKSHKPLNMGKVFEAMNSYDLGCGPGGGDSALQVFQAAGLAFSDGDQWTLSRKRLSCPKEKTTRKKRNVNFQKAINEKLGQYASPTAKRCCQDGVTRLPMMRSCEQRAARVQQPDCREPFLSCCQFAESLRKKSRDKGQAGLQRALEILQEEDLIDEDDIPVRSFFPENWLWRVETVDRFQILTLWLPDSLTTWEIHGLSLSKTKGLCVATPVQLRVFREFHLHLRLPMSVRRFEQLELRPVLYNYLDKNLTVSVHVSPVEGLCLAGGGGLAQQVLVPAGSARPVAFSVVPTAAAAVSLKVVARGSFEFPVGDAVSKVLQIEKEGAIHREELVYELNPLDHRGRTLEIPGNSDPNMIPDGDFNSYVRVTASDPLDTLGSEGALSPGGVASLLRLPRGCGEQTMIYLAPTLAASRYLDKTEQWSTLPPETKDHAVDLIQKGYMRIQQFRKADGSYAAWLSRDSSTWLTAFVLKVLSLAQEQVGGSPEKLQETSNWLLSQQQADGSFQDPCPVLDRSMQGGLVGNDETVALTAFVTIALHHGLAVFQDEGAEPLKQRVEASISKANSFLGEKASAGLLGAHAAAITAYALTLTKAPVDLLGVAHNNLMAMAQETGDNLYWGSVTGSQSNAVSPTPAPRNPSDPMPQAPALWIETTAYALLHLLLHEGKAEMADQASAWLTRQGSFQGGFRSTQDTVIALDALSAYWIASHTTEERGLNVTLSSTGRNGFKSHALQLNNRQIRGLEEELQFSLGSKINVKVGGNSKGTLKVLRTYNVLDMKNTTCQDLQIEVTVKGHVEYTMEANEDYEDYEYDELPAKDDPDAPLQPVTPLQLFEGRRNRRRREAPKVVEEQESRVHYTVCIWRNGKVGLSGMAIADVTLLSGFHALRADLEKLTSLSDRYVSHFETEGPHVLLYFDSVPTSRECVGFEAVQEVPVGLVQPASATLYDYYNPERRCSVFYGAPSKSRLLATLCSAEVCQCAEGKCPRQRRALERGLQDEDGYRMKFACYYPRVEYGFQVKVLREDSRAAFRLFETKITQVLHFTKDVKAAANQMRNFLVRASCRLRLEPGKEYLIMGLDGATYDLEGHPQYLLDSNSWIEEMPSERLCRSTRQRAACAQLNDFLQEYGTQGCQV
UniProt P22676: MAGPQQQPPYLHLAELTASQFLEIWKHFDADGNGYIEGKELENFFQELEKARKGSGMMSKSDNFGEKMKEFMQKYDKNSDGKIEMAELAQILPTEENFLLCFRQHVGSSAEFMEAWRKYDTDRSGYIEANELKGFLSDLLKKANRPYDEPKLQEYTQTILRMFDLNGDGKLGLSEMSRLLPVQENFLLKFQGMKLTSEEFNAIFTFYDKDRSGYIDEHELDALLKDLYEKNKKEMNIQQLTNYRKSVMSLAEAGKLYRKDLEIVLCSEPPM
UniProt Q9BSU1: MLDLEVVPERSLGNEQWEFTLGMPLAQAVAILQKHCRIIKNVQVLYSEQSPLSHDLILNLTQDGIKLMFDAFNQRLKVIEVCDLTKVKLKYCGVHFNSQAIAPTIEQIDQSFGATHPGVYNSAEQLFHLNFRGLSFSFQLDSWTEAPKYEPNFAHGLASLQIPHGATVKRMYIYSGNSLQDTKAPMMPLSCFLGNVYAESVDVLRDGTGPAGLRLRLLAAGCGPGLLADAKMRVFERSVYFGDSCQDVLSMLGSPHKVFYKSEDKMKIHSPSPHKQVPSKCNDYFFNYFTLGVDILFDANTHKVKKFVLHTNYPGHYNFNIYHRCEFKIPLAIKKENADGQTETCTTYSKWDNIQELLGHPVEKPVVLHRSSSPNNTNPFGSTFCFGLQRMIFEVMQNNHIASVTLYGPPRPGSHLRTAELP
UniProt Q8IYL3: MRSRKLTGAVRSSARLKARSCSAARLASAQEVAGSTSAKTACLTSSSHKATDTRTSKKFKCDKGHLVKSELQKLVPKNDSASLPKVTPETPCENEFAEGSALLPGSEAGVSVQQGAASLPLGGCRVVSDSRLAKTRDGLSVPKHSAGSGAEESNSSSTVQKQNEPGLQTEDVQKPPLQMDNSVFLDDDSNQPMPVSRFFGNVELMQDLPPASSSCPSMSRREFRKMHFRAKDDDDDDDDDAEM
UniProt Q96B23: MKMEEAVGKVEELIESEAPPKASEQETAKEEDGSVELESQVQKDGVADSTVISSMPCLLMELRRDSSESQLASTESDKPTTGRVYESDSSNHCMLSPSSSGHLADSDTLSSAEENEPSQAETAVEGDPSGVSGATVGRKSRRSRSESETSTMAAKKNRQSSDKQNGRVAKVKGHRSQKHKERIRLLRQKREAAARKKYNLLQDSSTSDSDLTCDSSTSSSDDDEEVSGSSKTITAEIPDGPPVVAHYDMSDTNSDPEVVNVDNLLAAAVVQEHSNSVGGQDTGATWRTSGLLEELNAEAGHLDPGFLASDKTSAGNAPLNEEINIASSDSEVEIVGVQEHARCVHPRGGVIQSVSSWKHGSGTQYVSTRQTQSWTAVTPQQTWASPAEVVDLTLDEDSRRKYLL
UniProt Q9NS00: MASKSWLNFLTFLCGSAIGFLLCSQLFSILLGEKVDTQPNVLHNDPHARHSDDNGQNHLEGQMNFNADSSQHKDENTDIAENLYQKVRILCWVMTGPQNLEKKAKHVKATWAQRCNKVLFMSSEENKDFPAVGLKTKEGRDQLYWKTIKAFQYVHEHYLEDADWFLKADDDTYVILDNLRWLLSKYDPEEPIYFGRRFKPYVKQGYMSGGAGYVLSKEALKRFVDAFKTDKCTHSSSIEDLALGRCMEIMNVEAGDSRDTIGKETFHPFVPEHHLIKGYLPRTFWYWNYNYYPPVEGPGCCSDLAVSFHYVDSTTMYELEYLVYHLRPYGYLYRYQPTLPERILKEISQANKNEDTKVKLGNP
UniProt Q9NX04: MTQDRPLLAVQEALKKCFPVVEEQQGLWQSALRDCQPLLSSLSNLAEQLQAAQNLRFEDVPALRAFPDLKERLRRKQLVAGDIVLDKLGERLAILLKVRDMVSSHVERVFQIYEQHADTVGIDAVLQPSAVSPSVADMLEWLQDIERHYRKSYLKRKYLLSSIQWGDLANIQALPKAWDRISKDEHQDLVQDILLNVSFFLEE
UniProt Q9NSK7: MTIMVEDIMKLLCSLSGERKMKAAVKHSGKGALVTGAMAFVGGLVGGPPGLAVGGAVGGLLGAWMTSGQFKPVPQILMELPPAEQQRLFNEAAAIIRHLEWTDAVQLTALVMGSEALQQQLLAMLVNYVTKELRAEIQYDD
UniProt Q13554, whole entry, looked up: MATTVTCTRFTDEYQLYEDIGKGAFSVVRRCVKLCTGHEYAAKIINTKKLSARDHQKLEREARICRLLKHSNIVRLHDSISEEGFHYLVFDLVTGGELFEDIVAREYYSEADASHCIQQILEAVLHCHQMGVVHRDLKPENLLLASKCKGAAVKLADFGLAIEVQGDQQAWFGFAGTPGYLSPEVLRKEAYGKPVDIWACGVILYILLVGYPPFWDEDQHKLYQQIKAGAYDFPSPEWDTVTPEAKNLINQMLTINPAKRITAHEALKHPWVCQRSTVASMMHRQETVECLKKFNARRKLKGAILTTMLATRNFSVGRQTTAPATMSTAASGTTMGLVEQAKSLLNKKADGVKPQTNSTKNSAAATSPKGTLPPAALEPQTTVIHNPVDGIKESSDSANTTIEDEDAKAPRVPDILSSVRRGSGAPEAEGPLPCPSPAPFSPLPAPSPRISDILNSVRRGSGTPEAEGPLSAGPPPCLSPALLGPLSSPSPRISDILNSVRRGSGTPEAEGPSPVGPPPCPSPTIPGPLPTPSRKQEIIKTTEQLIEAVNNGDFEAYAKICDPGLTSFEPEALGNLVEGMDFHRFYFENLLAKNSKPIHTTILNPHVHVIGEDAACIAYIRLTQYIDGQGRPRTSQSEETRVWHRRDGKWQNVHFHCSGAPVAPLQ
UniProt Q86Y37: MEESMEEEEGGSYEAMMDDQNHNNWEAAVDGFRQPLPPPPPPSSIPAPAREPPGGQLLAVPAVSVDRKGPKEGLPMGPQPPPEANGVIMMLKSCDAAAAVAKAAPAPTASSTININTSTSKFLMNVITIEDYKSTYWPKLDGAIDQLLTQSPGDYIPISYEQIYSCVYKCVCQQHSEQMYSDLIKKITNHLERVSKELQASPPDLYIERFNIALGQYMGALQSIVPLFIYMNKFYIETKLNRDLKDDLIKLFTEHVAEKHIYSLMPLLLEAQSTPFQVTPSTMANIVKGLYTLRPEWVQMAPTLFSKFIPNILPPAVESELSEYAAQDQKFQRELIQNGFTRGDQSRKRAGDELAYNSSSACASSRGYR
UniProt Q9NQ89: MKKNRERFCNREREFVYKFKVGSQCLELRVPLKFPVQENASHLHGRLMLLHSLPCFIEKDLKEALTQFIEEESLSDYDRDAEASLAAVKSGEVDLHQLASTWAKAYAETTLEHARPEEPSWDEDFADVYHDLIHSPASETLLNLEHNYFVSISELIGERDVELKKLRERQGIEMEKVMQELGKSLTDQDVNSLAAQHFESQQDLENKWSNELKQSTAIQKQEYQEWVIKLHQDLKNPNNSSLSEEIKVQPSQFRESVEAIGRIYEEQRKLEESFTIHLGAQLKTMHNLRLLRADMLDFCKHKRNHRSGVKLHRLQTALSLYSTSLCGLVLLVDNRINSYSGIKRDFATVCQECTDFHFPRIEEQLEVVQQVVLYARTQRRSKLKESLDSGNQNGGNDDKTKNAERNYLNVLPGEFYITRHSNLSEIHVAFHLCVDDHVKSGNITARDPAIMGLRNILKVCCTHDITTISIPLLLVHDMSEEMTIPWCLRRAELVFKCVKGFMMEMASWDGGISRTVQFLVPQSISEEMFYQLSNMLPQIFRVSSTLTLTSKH
UniProt Q5SQH8: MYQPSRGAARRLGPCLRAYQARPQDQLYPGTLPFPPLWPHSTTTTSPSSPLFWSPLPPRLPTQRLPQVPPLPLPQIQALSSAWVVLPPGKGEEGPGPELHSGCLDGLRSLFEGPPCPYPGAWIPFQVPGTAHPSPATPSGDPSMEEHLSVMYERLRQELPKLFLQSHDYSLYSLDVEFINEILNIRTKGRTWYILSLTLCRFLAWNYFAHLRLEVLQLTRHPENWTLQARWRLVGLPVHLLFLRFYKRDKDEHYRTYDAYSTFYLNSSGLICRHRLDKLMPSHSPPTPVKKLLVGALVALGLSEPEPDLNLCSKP
UniProt Q9BSJ5: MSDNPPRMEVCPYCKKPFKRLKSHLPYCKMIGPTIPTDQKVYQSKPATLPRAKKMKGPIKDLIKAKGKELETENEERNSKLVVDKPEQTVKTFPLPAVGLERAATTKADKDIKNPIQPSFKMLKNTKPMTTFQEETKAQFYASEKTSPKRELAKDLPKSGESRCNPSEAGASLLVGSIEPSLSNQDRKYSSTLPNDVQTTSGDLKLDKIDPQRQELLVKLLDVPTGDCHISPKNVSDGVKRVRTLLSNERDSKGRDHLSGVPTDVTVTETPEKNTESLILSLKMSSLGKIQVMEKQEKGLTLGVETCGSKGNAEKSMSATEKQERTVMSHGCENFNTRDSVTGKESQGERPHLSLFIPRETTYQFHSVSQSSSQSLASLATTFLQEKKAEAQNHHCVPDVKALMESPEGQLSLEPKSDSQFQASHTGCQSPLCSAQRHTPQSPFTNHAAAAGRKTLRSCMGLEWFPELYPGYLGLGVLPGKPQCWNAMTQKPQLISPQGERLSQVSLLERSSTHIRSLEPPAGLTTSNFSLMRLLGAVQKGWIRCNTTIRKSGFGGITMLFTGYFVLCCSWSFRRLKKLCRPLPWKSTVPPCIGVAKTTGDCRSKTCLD

How the values were obtained:
Test in all cases: log2 fold change, soluble protein after heating vs DMSO (PISA); higher = thermal stabilisation; K562 lysate, 10 uM; active = over 0.2 and 3.5 SD of the protein, either way, in both replicates (recomputed)
lapatinib = compound: CS(=O)(=O)CCNCc1ccc(-c2ccc3ncnc(Nc4ccc(OCc5cccc(F)c5)c(Cl)c4)c3c2)o1 [lapatinib]
In short: (§1)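 A 30 min treatment with 10 μM compound was applied to crude K562 extract at 1 mg/mL protein in PBS pH 7.4 with 1 mM MgCl2. Heating for 3 min spanned 48°C-58°C, after which aliquots were pooled, adjusted to 0.5% NP-40 at 4°C and spun at 21,000xg for 90 min. TMTpro 16plex LC-MS/MS of the supernatant, with channel sums equalised, gave values recorded as log-two fold change in thermal stability against solvent controls, from duplicates.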

pictilisib = compound: CS(=O)(=O)N1CCN(Cc2cc3nc(-c4cccc5[nH]ncc45)nc(N4CCOCC4)c3s2)CC1 [pictilisib]
In short: as §1

crizotinib = compound: C[C@@H](Oc1cc(-c2cnn(C3CCNCC3)c2)cnc1N)c1c(Cl)ccc(F)c1Cl [crizotinib]
In short: as §1

[1] = compound: C[C@H](C1=CC=C(C=C1)C(=O)NC2=C3C=CNC3=NC=C2)N
In short: as §1

duvelisib = compound: C[C@H](Nc1ncnc2nc[nH]c12)c1cc2cccc(Cl)c2c(=O)n1-c1ccccc1 [duvelisib]
In short: as §1

gandotinib = compound: Cc1cc(Nc2cc(CN3CCOCC3)c3nc(C)c(Cc4ccc(Cl)cc4F)n3n2)n[nH]1 [gandotinib]
In short: as §1

tozasertib = compound: Cc1cc(Nc2cc(N3CCN(C)CC3)nc(Sc3ccc(NC(=O)C4CC4)cc3)n2)n[nH]1 [tozasertib]
In short: as §1

doramapimod = compound: Cc1ccc(-n2nc(C(C)(C)C)cc2NC(=O)Nc2ccc(OCCN3CCOCC3)c3ccccc23)cc1 [doramapimod]
In short: as §1

bafetinib = compound: Cc1ccc(NC(=O)c2ccc(CN3CC[C@H](N(C)C)C3)c(C(F)(F)F)c2)cc1Nc1nccc(-c2cncnc2)n1 [bafetinib]
In short: as §1

[2] = compound: Cc1cccc(CC(=O)N2CCc3c2ccc(-c2cn(C)c4ncnc(N)c24)c3F)n1
In short: as §1

nilotinib = compound: Cc1cn(-c2cc(NC(=O)c3ccc(C)c(Nc4nccc(-c5cccnc5)n4)c3)cc(C(F)(F)F)c2)cn1 [nilotinib]
In short: as §1

[3] = compound: Cc1nc(Nc2n[nH]c3c2CN(C(=O)N[C@H](CN(C)C)c2ccccc2)C3(C)C)c2sccc2n1
In short: as §1

dasatinib = compound: Cc1nc(Nc2ncc(C(=O)Nc3c(C)cccc3Cl)s2)cc(N2CCN(CCO)CC2)n1 [dasatinib]
In short: as §1

[4] = compound: Cc1ncc(-c2ccnc(Nc3ccc(S(C)(=O)=O)cc3)n2)n1C(C)C
In short: as §1

[5] = compound: Cn1cc(-c2ccc3c(c2)CCN3C(=O)Cc2cccc(C(F)(F)F)c2)c2c(N)ncnc21
In short: as §1

quisinostat = compound: Cn1cc(CNCC2CCN(c3ncc(C(=O)NO)cn3)CC2)c2ccccc21 [quisinostat]
In short: as §1

tipifarnib = compound: Cn1cncc1[C@@](N)(c1ccc(Cl)cc1)c1ccc2c(c1)c(-c1cccc(Cl)c1)cc(=O)n2C [tipifarnib]
In short: as §1

[6] = compound: NC(=O)Nc1cc(-c2cccc(F)c2)sc1C(=O)N[C@H]1CCCNC1
In short: as §1

[7] = compound: NC(=O)c1cnc(N[C@@H]2CCCC[C@@H]2N)nc1Nc1cccc(-n2nccn2)c1
In short: as §1

[8] = compound: NC1(c2ccc(-c3nc4ccn5c(=O)[nH]nc5c4cc3-c3ccccc3)cc2)CCC1
In short: as §1

Measured: log2 fold change

C2orf76 (UniProt Q3KRA6)
inactive: lapatinib -0.022 | pictilisib -0.059 | crizotinib -0.025 | [1] -0.088 | duvelisib -0.017 | gandotinib 0.05 | tozasertib -0.086 | doramapimod -0.074 | bafetinib 0.027 | [2] 0.06 | nilotinib 0.002 | [3] -0.045 | dasatinib 0.034 | [4] -0.003 | [5] 0.037 | quisinostat 0.012 | tipifarnib 0.092 | [6] 0.004 | [7] 0.048 | [8] 0.079

C4A (UniProt P0C0L4)
inactive: lapatinib -0.109 | pictilisib -0.122 | crizotinib -0.009 | [1] -0.074 | duvelisib -0.049 | gandotinib 0.159 | tozasertib -0.036 | doramapimod -0.007 | bafetinib -0.041 | [2] 0.099 | dasatinib 0.047 | [5] 0.033 | quisinostat -0.095 | [6] 0.015 | [7] -0.133 | [8] -0.044

CALB2 (UniProt P22676)
inactive: lapatinib 0.009 | pictilisib -0.07 | crizotinib 0.01 | [1] -0.041 | duvelisib 0.031 | gandotinib 0.092 | tozasertib 0.056 | doramapimod 0.003 | bafetinib 0.082 | [2] -0.007 | nilotinib 0.098 | [3] -0.085 | dasatinib -0.037 | [4] 0.056 | [5] 0.016 | quisinostat 0.091 | tipifarnib -0.079 | [6] -0.006 | [7] -0.004 | [8] 0.046

C7orf25 isoform 2 (UniProt Q9BPX7)
inactive: lapatinib -0.13 | pictilisib -0.092 | crizotinib 0.036 | [1] 0.068 | duvelisib 0.039 | gandotinib -0.017 | tozasertib -0.006 | doramapimod 0.059 | bafetinib -0.315 | [2] -0.056 | dasatinib 0.05 | [5] -0.064 | quisinostat -0.092 | [6] -0.006 | [7] -0.01 | [8] -0.12

C16orf70 (UniProt Q9BSU1)
inactive: lapatinib -0.002 | pictilisib -0.076 | crizotinib 0.058 | duvelisib -0.013 | tozasertib 0.018 | doramapimod 0.116 | bafetinib -0.045 | dasatinib 0.042 | [5] -0.091 | quisinostat 0.036 | [6] -0.005 | [7] -0.001 | [8] 0.009

C1orf174 (UniProt Q8IYL3)
inactive: lapatinib -0.016 | pictilisib -0.04 | crizotinib 0.046 | [1] -0.054 | duvelisib 0.035 | gandotinib 0.042 | doramapimod -0.031 | bafetinib 0.051 | [2] -0.01 | dasatinib 0.011 | [5] 0.057 | quisinostat -0.097 | [6] 0.067 | [7] -0.143

CAP1 (UniProt Q5T0R8)
inactive: lapatinib -0.202 | [1] -0.188 | gandotinib -0.082 | [2] 0.027 | [7] 0.052 | [8] -0.007

C18orf25 isoform 2 (UniProt Q96B23)
inactive: lapatinib -0.001 | pictilisib -0.235 | [1] -0.017 | duvelisib 0.017 | gandotinib 0.061 | tozasertib 0.001 | bafetinib -0.025 | [2] -0.021 | nilotinib -0.026 | [3] -0.115 | dasatinib -0.025 | [4] -0.291 | [5] -0.056 | tipifarnib 0.076 | [7] 0.01 | [8] -0.071

CACNA1C isoform 2 (UniProt Q13936)
inactive: lapatinib 0.001 | [1] -0.412 | gandotinib 0.151 | [2] -0.147 | [7] -0.049 | [8] -0.048

C1GALT1 (UniProt Q9NS00)
inactive: lapatinib 0.241 | crizotinib -0.066 | [1] -0.072 | duvelisib -0.043 | gandotinib -0.013 | doramapimod 0.081 | [2] -0.067 | dasatinib -0.01 | [5] 0.016 | quisinostat 0.025 | [6] 0.028 | [7] 0.062 | [8] -0.068

CAPN1 (UniProt E9PLX0)
inactive: lapatinib -0.084 | crizotinib 0.033 | [1] 0.157 | gandotinib 0.033 | tozasertib -0.064 | doramapimod -0.086 | [2] 0.13 | nilotinib -0.063 | [3] 0.004 | [4] 0.253 | quisinostat 0.029 | tipifarnib 0.123 | [6] 0.134 | [7] -0.021

CAMKMT (UniProt Q7Z624)
inactive: lapatinib -0.027 | duvelisib 0 | nilotinib -0.002 | [3] 0.01 | dasatinib -0.115 | [4] 0.118 | [5] -0.043 | tipifarnib 0.084 | [7] 0.088

C1orf109 (UniProt Q9NX04)
inactive: lapatinib 0.069 | crizotinib -0.028 | duvelisib 0.11 | tozasertib 0.089 | doramapimod 0.037 | nilotinib -0.092 | [3] -0.053 | dasatinib -0.108 | [4] 0.02 | [5] 0.229 | quisinostat -0.03 | tipifarnib -0.008 | [6] -0.034 | [7] 0.081 | [8] -0.325

CAPNS1 (UniProt U3KPR7)
inactive: lapatinib -0.052 | pictilisib -0.083 | bafetinib -0.194 | nilotinib -0.166 | [3] -0.416 | [4] 0.226 | tipifarnib 0.161 | [7] -0.214

C19orf12 (UniProt Q9NSK7)
inactive: lapatinib -0.018 | crizotinib -0.102 | duvelisib -0.049 | tozasertib 0.013 | doramapimod 0.157 | nilotinib 0.064 | [3] 0.079 | dasatinib 0.103 | [4] 0.064 | [5] -0.065 | quisinostat 0.095 | tipifarnib 0.031 | [6] 0.024 | [7] -0.054

CABLES2 (UniProt Q9BTV7)
inactive: lapatinib -0.03 | pictilisib 0.063 | crizotinib -0.023 | tozasertib 0.064 | doramapimod 0.172 | bafetinib -0.046 | quisinostat -0.026 | [6] 0.016 | [7] 0.04

CALR (UniProt K7EJB9)
inactive: lapatinib -0.107 | nilotinib -0.467 | [3] 0.018 | [4] 0.121 | tipifarnib 0.071 | [7] -0.016

CAMK2B (UniProt Q13554)
active: [3] 0.399
inactive: lapatinib 0.024 | pictilisib 0.053 | [1] -0.045 | duvelisib -0.011 | gandotinib 0.072 | tozasertib -0.046 | doramapimod -0.03 | bafetinib 0.003 | [2] 0.055 | nilotinib -0.026 | dasatinib -0.055 | [4] 0.026 | [5] 0.023 | quisinostat -0.205 | tipifarnib -0.035 | [6] 0.295 | [7] 0.089 | [8] -0.045

C1orf226 isoform 2 (UniProt A1L170)
inactive: lapatinib -0.002 | [7] -0.121

CACUL1 (UniProt Q86Y37)
inactive: lapatinib -0.26 | crizotinib 0.037 | [1] 0.061 | duvelisib 0.044 | gandotinib -0.151 | tozasertib 0.094 | doramapimod 0.029 | [2] 0.08 | dasatinib -0.094 | [5] 0.157 | quisinostat 0.025 | [6] 0.102 | [7] -0.1 | [8] -0.028

C12orf4 (UniProt Q9NQ89)
inactive: lapatinib -0.159 | pictilisib -0.022 | crizotinib -0.003 | tozasertib 0.042 | doramapimod 0.027 | bafetinib -0.014 | quisinostat 0.176 | [6] 0.083 | [7] -0.007 | [8] -0.322

C6orf120 (UniProt Q7Z4R8)
inactive: lapatinib -0.113 | pictilisib 0.032 | [1] -0.03 | duvelisib -0.036 | gandotinib -0.037 | bafetinib 0.045 | [2] -0.169 | dasatinib -0.007 | [5] 0.147 | [7] 0.017 | [8] 0.041

C6orf136 isoform 4 (UniProt Q5SQH8)
inactive: lapatinib 0 | duvelisib 0.008 | tozasertib -0.004 | dasatinib -0.029 | [5] -0.068 | [7] -0.019 | [8] -0.157

C1orf131 isoform 5 (UniProt Q8NDD1)
inactive: lapatinib 0.065 | crizotinib -0.006 | [1] -0.16 | duvelisib 0.028 | gandotinib 0.076 | tozasertib 0.03 | doramapimod -0.008 | [2] 0.177 | nilotinib -0.106 | [3] -0.059 | dasatinib 0.048 | [4] -0.135 | [5] 0.034 | quisinostat -0.103 | tipifarnib 0.073 | [6] -0.025 | [7] -0.035 | [8] 0.002

C17orf80 (UniProt Q9BSJ5)
inactive: lapatinib 0.029 | crizotinib -0.07 | [1] -0.117 | gandotinib 0.101 | doramapimod -0.025 | [2] 0.192 | quisinostat 0.058 | [6] -0.028 | [7] 0.018 | [8] -0.013

Random excerpt: two records from the list, in no set order.
C6orf120 (UniProt Q7Z4R8)
inactive: lapatinib -0.113 | pictilisib 0.032 | [1] -0.03 | duvelisib -0.036 | gandotinib -0.037 | bafetinib 0.045 | [2] -0.169 | dasatinib -0.007 | [5] 0.147 | [7] 0.017 | [8] 0.041

C1orf131 isoform 5 (UniProt Q8NDD1)
inactive: lapatinib 0.065 | crizotinib -0.006 | [1] -0.16 | duvelisib 0.028 | gandotinib 0.076 | tozasertib 0.03 | doramapimod -0.008 | [2] 0.177 | nilotinib -0.106 | [3] -0.059 | dasatinib 0.048 | [4] -0.135 | [5] 0.034 | quisinostat -0.103 | tipifarnib 0.073 | [6] -0.025 | [7] -0.035 | [8] 0.002
